Results published in PMC7411624.
These are yes or no findings as the source states them, for the method shown. Binding seen in cells or lysates may run through a third protein. A result given as binding can be weak or reduced; the word gives no strength. Sequences can lack the tags named with a protein.

Chains of the proteins cited; added tags and fusions are not shown. Lines headed by an entry give the natural chain unless they say otherwise; changes in a name come on top.
UniProt Q0IFK9: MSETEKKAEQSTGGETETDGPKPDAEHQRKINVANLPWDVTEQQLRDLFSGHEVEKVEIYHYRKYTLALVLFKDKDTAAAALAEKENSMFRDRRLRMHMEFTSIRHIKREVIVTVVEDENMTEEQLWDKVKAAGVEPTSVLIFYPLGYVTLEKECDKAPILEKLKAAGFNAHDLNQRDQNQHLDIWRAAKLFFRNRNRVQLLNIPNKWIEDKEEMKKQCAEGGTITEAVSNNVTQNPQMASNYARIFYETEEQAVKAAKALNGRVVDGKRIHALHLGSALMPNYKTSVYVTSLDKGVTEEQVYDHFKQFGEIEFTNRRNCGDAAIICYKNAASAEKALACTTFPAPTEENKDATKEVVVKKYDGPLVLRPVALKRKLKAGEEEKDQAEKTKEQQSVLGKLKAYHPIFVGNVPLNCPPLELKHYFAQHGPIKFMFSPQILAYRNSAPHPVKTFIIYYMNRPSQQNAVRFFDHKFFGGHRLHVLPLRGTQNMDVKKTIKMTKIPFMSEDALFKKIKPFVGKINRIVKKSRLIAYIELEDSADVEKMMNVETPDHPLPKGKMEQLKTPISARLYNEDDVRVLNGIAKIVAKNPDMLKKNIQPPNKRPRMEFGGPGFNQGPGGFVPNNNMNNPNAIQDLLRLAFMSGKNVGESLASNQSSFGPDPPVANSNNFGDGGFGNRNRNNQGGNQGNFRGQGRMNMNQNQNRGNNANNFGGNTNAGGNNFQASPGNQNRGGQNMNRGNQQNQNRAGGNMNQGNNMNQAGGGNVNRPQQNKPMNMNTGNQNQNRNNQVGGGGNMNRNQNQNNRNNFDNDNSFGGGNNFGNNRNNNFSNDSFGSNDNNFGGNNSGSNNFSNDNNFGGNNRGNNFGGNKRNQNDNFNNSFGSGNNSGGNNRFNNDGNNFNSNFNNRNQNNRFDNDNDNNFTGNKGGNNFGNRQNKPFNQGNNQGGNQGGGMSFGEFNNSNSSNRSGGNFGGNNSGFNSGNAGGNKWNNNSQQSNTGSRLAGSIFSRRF

Target: myc-tagged Q0IFK9 (aBravo, aedine broadly active antiviral protein) (Ae. aegypti) (UniProt Q0IFK9)
Assay: co-IP

Molecule	binding
V5-tagged Ae. aegypti Dicer 2 (Dcr2) (from UniProt Q49LL4) (enzyme)	binds
V5-tagged Ae. aegypti Argonaute 2 (Ago2) (protein, UniProt C5J0H4 1-992) MILNARYLYIPCRQKQQQQQQQPQQQQQHQQKQQSQQQQQQQQQQQRSKEQGSQQQQRPQQQAQQQQPSQQQQQSQKQQHPQQQQQQRPQKQQQQFQQDQRPQQQQQQLQKQQQQQGQSWRPQSHDPSPASGSHSHSSSPSHAAALERVEEDFSKIKIDKQKIHSSALLPVLMRPNAHGTRGRAIKVEVNYIQLLLERLIPTAYHYDVDIQPAASRKWQRLAFSEFTKQMFPNHGFAFDGHKNAYAARRLQADVYEQEVKVRDEGRERRFKVAMKEAAVLDMTCLKTYMNNGSTLDKPMSAIQCLDIVLRTAYENNPRFIKFKKSIYVKPDRPDDIGSNHELWYGLFQSALLGARPFLNIDVSHKAFPTGGPVLRILVDMNRGQVPDRVTDWMSRDLHDFLKGMELSYTGPDGVSKLFKYNSIKSPANQQKFKLENGTEMTIDQYFRSKNKQLRYPSLPVLHVGSLVRNVMLPIELCSIPPGQALNKKHPDQCTQFIIRKSATDTATRKRKIMDLFNQIGYNNAPTIKEFGVSVGNNFETVDGRILDPPELSYRNDRRVKPMRGVWRADNMNFIIPSTEITRRELSWTILNLDGRTRPDAIDEFGRNIYQMSLKQGVQLQQFSMKNNFYEPRDMRFAVKDLDNIFDELKKRKIDLVFVVIPSPGRDGDVYAKVKQKAELCVGLLTQCIKSFTLDKKRGDMSTISNIWLKINAKTNGSNHVLAKNFKPPIARKTVMYVGADVTHPSPEQTNIPSVVGVAASYDLEGFRYNCCYRLQGPKDEMIRDLQNIVIKQLRQFKQTNQSLPELIMYYRDGVSEGQFQEVLTIELRAMQAAAASVQQGYKPNITFIVVQKRHHARFFPTANCPTEGRNNNVQPGTIVDRYITAPNQYQFFLVSHAAVQGVAKPTKYCVLYDDENCNPDQLQALTYYLCHMFTRCNRAVSYPAPTYYAHLAAYRGRVYIKDRPLNMNNLTKEYERMQIRTEIQDGHPMFFV	binds
